Literature values as cited in US7094600B2, “Screen for sodium channel modulators” (The Research Foundation of State University of New York, priority 2003, dated 2006).

Settings: as antiarrhythmic agent; cited from earlier work

| Compound | therapeutic plasma concentration |
| --- | --- |
| CCCCc1oc2ccccc2c1C(=O)c1cc(I)c(OCCN(CC)CC)c(I)c1 [amiodarone] | 0.77 to 3.1 µM |
| CCCNCC(O)COc1ccccc1C(=O)CCc1ccccc1 (centres unmarked) [propafenone] | 0.5 to 1.5 µM |
